Test results from PubChem BioAssay AID933 (National Center for Advancing Translational Sciences (NCATS), 2009).
The shares of active, inactive and inconclusive entries below differ from those in the screen. Where the call is inconclusive, the potency comes from a doubtful curve fit. A note “side channel” means that the fit belongs to a control or component signal, not to the main read-out. Active and inactive are the calls of the source. Calls follow the shape of the dose curve; as a rule, active = well fitted activation curve with a large enough effect in the signal ratio, with a control signal flat; inconclusive = small, poorly fitted or top-dose-only effect, or a change in a side signal; inactive = flat fitted curve, though single readings scatter; the % refers to the signal ratio.

Amino acid sequences for entries named in this document (tags omitted).
UniProt P16473, whole entry, looked up: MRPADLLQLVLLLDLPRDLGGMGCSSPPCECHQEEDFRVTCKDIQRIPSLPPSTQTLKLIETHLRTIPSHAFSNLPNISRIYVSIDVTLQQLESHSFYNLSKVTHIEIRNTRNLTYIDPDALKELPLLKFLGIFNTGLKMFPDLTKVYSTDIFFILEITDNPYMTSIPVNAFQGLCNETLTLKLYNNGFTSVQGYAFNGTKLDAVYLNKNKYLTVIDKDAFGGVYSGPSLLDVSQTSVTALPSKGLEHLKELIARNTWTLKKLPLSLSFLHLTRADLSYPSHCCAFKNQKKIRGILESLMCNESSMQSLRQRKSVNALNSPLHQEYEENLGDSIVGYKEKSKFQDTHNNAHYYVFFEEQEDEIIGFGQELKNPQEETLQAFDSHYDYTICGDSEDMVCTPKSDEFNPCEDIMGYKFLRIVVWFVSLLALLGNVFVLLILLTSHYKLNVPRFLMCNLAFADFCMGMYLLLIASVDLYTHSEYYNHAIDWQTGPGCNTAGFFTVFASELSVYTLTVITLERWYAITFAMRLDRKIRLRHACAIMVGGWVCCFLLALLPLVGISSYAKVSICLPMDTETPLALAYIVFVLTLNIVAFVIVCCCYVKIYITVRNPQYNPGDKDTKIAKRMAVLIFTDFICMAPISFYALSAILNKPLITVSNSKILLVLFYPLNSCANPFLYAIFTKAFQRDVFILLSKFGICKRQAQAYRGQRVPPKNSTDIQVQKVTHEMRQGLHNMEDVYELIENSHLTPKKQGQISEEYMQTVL

Biological target: Thyrotropin receptor (Homo sapiens) (UniProt P16473)
Test: Secondary Concentration-Response Assay for Agonists of the Thyroid Stimulating Hormone Receptor: HTRF Activity Detection;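 as to activation: HEK 293 cells stably expressing human TSHR with RO 20-1724 phosphodiesterase inhibitor; % of control where 0% means no effect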
Conditions: HEK293-TSHR cells, cAMP HTRF ratio, 30 min; series mostly up to 91.7 µM; activation: at the top concentration
Summary of the method: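 Orthogonal confirmation in a separate TSHR-transfected HEK 293 line: cells in medium with 10 % FCS and 100 uM RO 20-1724 got compound for 30 min at room temperature. cAMP was measured by HTRF (d2-cAMP/anti-cAMP antibody), 615/660 nm emission.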
Potency is read from the fitted curve at half-maximal effect.

Potency, inconclusive:
COc1ccc(-c2nc3ccc(NC(C)=O)cc3c(=O)n2Cc2cccc(Cl)c2)cc1COc1ccc(NC(C)=O)cc1 22.4 µM [activator, partial curve]
COc1ccc(OCc2cc(C3Nc4ccccc4C(=O)N3Cc3ccccc3)ccc2OC)cc1 (stereo unspecified) 3.98 µM [activator, full curve, poor fit]
COc1ccc(C2Nc3ccccc3C(=O)N2Cc2ccccn2)cc1COc1ccc(NC(C)=O)cc1 (stereo unspecified) 39.8 µM [activator, partial curve]
COc1ccc(CN(Cc2ccccc2)C(=O)c2cccc(C#N)c2)cc1COc1ccc(NC(C)=O)cc1 7.94 µM [activator, full curve]
O=C(c1cccc(Cl)c1Cl)N(Cc1ccco1)Cc1cccs1 31.6 µM [side channel, falling, full curve, poor fit]

Potency, active:
O=C(COC(=O)C12CC3CC(CC(Br)(C3)C1)C2)NCc1ccco1 10 µM
COc1ccc(-c2nc3ccccc3c(=O)n2Cc2ccco2)cc1COc1ccc(NC(C)=O)cc1 17.8 µM

activation, inactive:
O=C1c2ccccc2NC(c2ccc(OCc3ccccc3)c(OCc3ccccc3)c2)N1Cc1ccco1 (stereo unspecified) 1.04%
COc1ccc(C(=O)N(Cc2ccco2)Cc2cccs2)cc1 4.57%
COc1ccc(C2Nc3ccccc3C(=O)N2Cc2ccco2)cc1COc1ccc(N)cc1 (stereo unspecified) 30.9%
COc1cc(C2Nc3ccccc3C(=O)N2Cc2ccco2)ccc1O (stereo unspecified) 1.67%
